Experimental data published in the supplement of paper PMC11006884.
The entries are a selection whose mix differs from that of the whole data set. The data scatter; read single values as rough.

Sequences of proteins named here, by UniProt entry; tags and fusion partners are left off. A change or cut given only in a name is not applied to a line headed by its entry.
UniProt Q9Y4W6: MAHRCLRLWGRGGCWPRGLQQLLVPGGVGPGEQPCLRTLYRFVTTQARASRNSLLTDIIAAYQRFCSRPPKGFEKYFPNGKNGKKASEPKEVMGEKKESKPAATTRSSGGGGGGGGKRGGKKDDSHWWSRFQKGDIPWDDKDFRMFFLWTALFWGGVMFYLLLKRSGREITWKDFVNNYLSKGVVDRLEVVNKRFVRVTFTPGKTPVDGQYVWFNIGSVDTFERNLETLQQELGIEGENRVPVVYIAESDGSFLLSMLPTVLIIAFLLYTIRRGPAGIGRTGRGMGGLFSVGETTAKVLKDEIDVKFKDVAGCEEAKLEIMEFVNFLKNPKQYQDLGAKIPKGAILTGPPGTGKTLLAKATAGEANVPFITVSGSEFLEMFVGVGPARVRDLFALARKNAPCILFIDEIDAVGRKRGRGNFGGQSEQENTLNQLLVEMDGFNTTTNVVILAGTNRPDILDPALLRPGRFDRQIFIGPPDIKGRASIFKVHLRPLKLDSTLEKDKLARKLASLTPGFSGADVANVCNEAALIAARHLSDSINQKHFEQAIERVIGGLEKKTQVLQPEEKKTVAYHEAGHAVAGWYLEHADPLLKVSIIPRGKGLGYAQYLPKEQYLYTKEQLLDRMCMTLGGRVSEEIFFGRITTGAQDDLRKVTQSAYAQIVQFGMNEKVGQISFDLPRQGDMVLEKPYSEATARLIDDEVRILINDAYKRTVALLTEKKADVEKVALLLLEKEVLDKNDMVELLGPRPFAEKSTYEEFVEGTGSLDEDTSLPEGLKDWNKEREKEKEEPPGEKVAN
UniProt Q9Y508: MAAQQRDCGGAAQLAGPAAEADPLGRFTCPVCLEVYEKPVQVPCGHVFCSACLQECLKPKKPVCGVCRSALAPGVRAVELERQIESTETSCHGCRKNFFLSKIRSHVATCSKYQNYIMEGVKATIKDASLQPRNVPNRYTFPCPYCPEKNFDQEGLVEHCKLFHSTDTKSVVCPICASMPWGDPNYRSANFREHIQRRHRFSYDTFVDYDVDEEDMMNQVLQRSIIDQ
UniProt Q9Y620: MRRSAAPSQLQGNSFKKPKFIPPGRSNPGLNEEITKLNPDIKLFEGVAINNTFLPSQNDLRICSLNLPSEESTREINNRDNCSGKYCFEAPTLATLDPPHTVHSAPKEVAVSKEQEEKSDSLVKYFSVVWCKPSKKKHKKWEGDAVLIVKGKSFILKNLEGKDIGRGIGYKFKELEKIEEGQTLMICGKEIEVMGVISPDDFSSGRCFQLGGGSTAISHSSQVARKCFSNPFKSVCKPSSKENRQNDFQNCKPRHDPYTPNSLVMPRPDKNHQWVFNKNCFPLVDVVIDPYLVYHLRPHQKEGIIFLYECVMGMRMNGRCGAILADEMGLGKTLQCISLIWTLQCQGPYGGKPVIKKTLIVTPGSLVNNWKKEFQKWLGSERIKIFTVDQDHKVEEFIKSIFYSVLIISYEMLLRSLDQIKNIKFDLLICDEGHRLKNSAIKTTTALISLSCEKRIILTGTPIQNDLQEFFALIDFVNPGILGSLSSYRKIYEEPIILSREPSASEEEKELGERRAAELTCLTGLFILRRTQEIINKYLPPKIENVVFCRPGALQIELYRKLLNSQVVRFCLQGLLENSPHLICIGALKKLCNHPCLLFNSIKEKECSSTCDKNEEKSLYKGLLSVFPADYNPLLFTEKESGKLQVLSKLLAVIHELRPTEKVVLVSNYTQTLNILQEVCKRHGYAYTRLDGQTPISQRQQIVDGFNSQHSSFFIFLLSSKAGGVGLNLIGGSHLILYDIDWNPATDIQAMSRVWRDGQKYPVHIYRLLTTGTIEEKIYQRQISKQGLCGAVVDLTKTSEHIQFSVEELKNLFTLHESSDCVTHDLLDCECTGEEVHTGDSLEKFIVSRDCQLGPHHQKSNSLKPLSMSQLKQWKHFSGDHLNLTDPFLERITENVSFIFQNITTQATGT
UniProt Q9Y5T5, whole entry, looked up: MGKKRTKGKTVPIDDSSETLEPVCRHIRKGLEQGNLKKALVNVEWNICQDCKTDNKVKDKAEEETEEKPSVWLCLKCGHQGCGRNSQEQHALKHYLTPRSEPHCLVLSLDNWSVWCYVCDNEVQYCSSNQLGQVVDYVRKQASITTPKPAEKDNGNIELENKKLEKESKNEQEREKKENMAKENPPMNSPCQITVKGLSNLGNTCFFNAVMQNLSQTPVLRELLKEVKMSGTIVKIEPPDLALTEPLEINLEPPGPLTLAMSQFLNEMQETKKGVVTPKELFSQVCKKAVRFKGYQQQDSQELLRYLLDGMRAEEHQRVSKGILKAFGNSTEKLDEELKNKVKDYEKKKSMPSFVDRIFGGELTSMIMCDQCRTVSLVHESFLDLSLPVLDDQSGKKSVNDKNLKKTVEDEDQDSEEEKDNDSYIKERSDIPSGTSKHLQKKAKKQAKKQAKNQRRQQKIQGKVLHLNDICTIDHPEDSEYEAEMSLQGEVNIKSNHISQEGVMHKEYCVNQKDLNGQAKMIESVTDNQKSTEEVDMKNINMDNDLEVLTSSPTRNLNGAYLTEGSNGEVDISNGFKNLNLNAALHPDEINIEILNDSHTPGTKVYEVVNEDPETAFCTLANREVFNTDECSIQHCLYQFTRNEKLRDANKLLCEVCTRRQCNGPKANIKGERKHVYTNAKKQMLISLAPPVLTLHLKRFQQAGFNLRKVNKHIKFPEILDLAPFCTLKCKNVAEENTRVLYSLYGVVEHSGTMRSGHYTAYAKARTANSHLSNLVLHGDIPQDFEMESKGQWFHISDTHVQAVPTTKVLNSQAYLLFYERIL
UniProt Q9Y4W2: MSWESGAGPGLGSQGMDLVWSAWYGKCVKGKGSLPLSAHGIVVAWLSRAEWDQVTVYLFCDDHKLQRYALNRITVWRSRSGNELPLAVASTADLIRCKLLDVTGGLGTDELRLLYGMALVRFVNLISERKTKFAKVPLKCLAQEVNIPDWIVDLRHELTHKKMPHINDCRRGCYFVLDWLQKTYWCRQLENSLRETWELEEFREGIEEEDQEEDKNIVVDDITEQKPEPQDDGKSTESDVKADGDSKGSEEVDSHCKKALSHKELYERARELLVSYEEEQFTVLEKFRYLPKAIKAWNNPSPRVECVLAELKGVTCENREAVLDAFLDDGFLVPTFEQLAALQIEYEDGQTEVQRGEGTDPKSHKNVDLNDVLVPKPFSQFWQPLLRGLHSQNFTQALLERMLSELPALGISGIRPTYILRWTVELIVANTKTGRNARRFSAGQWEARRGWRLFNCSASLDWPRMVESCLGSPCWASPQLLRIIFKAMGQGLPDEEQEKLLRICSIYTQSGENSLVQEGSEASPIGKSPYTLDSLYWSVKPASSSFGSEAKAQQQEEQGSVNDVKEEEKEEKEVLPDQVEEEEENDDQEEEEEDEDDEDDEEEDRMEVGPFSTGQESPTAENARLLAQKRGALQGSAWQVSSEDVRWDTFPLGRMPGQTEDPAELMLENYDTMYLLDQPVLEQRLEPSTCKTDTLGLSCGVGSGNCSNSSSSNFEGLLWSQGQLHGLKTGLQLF
UniProt Q9Y5J1: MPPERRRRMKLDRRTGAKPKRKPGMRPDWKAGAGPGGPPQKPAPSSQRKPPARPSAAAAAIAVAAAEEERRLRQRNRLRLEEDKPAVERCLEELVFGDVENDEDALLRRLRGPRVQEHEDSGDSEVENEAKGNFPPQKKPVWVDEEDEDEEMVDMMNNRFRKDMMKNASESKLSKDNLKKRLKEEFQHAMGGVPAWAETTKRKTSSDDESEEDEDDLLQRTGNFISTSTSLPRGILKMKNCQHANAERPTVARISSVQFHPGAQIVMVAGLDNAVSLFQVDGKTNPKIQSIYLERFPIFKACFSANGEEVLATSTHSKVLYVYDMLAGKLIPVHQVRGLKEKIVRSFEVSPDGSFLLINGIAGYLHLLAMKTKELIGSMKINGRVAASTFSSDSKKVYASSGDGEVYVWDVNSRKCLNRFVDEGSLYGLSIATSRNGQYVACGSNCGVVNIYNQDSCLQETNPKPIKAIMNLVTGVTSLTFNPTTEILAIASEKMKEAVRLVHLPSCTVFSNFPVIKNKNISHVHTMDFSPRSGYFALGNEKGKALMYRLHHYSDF
UniProt Q9Y678: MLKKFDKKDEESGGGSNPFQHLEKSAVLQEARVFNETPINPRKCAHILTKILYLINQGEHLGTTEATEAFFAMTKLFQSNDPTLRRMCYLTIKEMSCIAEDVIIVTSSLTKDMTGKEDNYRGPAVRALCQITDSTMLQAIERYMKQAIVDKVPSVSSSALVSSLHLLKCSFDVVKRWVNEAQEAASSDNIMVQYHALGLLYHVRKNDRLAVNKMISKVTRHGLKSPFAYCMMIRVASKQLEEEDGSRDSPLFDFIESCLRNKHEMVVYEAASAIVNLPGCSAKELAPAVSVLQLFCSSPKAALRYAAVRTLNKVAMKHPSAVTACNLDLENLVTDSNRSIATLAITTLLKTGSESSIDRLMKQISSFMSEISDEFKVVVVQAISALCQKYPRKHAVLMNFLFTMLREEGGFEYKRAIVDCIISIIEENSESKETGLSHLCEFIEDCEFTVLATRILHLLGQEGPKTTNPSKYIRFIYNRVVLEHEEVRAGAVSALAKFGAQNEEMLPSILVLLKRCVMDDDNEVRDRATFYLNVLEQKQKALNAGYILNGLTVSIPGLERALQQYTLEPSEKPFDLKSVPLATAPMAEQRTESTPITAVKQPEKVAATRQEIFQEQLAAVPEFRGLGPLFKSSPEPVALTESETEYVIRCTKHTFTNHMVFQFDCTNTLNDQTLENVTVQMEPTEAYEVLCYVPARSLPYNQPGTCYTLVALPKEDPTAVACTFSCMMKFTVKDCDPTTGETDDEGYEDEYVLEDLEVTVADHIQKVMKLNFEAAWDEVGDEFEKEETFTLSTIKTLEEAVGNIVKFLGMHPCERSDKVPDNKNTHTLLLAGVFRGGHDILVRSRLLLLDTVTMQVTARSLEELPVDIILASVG
UniProt Q9Y5L0: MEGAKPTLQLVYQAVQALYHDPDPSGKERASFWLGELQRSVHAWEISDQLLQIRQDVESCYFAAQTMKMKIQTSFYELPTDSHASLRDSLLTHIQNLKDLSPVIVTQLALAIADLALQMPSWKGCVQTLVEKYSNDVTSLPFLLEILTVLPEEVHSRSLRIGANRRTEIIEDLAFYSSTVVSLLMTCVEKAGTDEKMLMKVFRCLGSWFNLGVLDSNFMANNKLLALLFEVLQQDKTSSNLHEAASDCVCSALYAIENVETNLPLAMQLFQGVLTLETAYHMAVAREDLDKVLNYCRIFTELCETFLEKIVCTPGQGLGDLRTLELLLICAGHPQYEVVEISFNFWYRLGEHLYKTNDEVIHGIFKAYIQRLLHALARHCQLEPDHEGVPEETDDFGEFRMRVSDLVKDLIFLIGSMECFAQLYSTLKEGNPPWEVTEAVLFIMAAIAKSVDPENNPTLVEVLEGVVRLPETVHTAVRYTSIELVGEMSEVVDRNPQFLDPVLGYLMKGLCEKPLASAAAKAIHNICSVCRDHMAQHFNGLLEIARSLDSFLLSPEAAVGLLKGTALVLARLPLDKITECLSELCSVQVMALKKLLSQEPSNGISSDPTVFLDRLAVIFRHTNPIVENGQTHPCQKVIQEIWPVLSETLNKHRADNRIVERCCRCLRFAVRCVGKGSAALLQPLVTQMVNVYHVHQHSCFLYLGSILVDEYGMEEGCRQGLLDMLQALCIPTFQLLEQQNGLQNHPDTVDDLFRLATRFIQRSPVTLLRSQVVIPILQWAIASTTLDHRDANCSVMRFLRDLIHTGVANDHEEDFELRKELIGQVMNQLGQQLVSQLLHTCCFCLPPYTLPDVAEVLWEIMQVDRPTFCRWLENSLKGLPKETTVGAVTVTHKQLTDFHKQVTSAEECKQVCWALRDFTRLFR

compound: COC(=O)/C=C/c1ccccc1 [methyl cinnamate]; assay: log2 ratio of iodoacetamide-alkyne labeling of the cysteine site, DMSO over compound (competition); higher = stronger covalent engagement of the cysteine by the compound, active = 1 or more; conditions: 500 µM; treatment time 1 h; system: HEK293T cell lysate
In short: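 Electrophile (500 µM) or vehicle was added to HEK293T lysate (2 mg/mL) for 1 h at ambient temperature before iodoacetamide alkyne labelling (1 h) and click coupling to sCIP-TMT reagents. After pooling, overnight trypsin digestion at 37 °C, streptavidin enrichment and acid elution, peptides were measured by Orbitrap Eclipse LC-MS/MS with FAIMS and quantified in FragPipe. Each cysteine's log2 competition ratio compares mean control-channel with mean compound-channel reporter intensity, control over compound. Data came from duplicate channels across three replicates, excluding cysteines quantified in only one replicate.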

log2 ratio of iodoacetamide-alkyne labeling, inactive:
AFG3L2 C525 (UniProt Q9Y4W6) 0.194, RNF114 C176 (UniProt Q9Y508) 0.0717, RAD54B C63 (UniProt Q9Y620) 0.251, USP16 C205 (UniProt Q9Y5T5) 0.0118, LAS1L C690 (UniProt Q9Y4W2) 0.0473, UTP18 C90 (UniProt Q9Y5J1) 0.15, LAS1L C306 (UniProt Q9Y4W2) 0.0103, UniProt Q9Y678_C129 0.236, TNPO3 C912 (UniProt Q9Y5L0) 0.344
